# Experimental data taken from the supplement of paper PMC12819154, “High-throughput peptide-centric local stability assay extends protein–ligand identification to membrane proteins, tissues and bacteria” (Nature Structural & Molecular Biology, 2025).
# Amino acid sequences for entries named in this document (tags omitted). A change or cut given only in a name is not applied to a line headed by its entry.
# UniProt Q61026: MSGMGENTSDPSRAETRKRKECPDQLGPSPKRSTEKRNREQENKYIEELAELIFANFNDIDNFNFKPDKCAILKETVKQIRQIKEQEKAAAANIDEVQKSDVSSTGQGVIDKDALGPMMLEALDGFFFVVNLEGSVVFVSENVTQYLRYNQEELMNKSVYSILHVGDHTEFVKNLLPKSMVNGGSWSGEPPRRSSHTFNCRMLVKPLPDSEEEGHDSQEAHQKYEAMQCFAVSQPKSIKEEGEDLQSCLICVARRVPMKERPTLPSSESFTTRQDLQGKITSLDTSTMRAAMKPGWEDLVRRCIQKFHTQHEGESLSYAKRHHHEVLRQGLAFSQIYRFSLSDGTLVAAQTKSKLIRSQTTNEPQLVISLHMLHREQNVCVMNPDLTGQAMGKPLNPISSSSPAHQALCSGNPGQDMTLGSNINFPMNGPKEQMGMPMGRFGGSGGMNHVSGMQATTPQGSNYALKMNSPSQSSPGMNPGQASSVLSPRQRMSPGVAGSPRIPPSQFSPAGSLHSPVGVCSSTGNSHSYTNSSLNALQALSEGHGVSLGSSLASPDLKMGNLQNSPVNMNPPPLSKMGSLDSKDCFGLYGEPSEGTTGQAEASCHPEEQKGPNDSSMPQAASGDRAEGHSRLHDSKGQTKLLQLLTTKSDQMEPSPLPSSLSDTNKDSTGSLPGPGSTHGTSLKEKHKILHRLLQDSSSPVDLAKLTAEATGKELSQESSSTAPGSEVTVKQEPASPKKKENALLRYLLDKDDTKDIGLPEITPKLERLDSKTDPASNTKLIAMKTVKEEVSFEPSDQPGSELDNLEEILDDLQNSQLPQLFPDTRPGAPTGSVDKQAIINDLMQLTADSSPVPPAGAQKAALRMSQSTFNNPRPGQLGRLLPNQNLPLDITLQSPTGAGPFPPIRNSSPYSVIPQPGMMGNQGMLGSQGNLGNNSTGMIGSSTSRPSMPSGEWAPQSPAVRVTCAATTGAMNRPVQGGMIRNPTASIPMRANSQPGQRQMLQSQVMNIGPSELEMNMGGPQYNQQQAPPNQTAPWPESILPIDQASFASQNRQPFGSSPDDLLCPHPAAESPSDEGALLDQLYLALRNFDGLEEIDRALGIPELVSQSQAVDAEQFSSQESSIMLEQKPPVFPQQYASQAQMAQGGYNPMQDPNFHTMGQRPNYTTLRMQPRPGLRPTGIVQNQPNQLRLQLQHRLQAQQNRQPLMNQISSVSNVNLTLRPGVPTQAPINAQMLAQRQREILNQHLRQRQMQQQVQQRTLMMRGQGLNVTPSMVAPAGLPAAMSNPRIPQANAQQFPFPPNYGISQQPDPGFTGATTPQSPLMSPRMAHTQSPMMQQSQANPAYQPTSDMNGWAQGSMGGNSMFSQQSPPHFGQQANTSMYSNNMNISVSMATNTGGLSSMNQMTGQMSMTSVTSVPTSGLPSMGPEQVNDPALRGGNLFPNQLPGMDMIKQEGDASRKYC
# UniProt Q60760: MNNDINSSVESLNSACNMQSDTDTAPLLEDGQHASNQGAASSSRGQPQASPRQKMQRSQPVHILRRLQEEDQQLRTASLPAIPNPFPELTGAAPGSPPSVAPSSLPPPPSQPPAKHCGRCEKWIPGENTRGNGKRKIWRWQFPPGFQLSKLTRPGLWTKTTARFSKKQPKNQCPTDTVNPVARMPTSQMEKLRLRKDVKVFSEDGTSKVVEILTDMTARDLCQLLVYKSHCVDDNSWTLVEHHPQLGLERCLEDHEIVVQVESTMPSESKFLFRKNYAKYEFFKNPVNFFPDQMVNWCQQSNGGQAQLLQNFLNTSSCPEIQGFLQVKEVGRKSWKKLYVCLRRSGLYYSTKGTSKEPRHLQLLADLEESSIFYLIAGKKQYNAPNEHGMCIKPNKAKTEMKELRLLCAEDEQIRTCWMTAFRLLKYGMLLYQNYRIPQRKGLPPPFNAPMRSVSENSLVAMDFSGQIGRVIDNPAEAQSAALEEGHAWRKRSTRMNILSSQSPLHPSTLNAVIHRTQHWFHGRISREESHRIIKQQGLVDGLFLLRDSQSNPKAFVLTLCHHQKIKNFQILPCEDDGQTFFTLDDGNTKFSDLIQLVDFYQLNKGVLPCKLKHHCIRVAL
# UniProt Q61089: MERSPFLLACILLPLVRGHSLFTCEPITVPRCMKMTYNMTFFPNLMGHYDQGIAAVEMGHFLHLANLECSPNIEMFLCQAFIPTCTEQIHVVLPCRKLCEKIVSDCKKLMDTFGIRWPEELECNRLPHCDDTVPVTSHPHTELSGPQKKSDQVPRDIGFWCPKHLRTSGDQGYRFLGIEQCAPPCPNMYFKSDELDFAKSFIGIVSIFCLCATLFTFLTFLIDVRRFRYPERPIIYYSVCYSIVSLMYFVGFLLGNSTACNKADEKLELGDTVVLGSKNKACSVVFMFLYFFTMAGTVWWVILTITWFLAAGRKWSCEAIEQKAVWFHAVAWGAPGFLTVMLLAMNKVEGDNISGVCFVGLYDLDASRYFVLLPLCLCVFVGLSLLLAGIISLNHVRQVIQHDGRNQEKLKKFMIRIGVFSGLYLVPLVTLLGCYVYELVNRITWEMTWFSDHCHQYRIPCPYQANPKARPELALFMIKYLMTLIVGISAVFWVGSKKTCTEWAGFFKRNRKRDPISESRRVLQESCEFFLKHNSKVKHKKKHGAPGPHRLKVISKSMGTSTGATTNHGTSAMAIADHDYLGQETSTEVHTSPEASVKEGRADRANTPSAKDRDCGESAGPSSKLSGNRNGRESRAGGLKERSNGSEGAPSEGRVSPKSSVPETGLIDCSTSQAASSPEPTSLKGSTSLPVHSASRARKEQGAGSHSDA
# UniProt Q5HZJ0: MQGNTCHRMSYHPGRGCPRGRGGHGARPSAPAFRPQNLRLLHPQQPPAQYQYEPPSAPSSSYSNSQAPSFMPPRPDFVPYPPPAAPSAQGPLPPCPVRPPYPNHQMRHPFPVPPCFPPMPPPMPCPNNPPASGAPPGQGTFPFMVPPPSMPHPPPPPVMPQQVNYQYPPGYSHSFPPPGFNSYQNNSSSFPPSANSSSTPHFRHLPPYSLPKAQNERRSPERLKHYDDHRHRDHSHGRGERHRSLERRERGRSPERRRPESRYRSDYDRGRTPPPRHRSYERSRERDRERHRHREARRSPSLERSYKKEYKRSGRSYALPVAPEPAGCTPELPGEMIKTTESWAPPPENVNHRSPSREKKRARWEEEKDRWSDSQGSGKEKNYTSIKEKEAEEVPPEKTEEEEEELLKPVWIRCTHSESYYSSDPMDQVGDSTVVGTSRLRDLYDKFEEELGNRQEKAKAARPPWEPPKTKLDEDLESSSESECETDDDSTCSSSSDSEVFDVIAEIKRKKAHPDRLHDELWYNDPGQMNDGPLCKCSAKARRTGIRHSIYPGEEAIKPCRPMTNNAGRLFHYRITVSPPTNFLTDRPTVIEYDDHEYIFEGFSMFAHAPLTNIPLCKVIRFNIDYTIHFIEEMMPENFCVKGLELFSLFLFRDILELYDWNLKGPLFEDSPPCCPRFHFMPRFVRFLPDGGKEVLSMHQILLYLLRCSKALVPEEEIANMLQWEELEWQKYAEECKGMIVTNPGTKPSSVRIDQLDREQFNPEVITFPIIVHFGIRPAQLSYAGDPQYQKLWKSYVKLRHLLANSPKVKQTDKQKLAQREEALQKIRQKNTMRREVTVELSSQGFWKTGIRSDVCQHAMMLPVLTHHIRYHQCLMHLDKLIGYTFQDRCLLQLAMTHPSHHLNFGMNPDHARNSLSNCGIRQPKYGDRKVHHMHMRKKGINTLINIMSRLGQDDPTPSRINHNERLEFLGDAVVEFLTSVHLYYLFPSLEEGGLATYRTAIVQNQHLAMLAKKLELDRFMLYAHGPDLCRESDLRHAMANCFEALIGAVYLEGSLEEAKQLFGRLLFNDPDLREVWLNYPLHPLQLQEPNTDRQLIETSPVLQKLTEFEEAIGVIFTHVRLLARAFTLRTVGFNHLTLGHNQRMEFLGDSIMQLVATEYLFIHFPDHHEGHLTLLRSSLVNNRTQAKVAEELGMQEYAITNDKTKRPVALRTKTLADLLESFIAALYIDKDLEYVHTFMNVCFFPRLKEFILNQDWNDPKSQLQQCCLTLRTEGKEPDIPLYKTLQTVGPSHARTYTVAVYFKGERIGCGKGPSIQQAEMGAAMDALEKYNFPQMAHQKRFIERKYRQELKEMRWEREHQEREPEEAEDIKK
# This is one part of the list. Small differences around the control level are noise.
# Compound: CN[C@@H]1C[C@H]2O[C@@](C)([C@@H]1OC)n1c3ccccc3c3c4c(c5c6ccccc6n2c5c31)C(=O)NC4 [staurosporine]
# Assay: log2 fold change of tryptic peptide abundance, ligand vs vehicle (limited proteolysis) (log2 ratio); higher = more trypsin-susceptible (destabilized)
# Details: ligand concentration: 20 uM; sample: mouse liver crude lysate; replicate design: treated separately
row,Target,log2 fold change
1,"UniProt Q61026 (peptide sequence: SMVNGGSWSGEPPRR, peptide start residue: 179)",0.562
2,"UniProt Q60760 (peptide sequence: GVLPCKLK, peptide start residue: 523)",-0.216
3,"UniProt Q61089 (peptide sequence: GSTSLPVHSASR, peptide start residue: 685)",-0.057
4,"UniProt Q5HZJ0 (peptide sequence: LGQDDPTPSR, peptide start residue: 951)",0.338
